In patent US20190177415A1:
Results are given in words; binding and its absence hold for the method and conditions named.

Amino acid sequences for entries named in this document (tags omitted). A change or cut given only in a name is not applied to a line headed by its entry.
UniProt Q9H7M9: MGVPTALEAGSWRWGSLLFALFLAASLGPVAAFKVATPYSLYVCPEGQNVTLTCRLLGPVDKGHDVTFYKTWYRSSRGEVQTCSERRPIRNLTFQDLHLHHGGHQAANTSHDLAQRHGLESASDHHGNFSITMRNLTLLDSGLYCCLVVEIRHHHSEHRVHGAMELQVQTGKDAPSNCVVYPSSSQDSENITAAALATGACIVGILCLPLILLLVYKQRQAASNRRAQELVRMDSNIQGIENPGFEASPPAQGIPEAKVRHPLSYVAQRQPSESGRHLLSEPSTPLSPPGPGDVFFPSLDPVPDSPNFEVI

Experiments:
Experiment in all cases: condition: MFI <20-fold over isotype control at 2 ug/ml; flow cytometry, transfected 293t cells
[1] = target: T1, full length mouse C10orf54 (construct CC2) (mouse) (UniProt Q9D659)
T1 sequence: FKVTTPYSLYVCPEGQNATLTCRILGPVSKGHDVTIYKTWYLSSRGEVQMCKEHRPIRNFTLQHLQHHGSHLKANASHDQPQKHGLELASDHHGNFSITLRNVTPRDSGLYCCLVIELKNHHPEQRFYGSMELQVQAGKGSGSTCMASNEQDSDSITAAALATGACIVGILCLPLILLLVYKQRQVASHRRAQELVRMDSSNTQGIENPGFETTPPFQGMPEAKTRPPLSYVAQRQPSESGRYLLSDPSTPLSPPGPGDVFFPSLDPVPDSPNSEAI

[2] = target: chimeric C10orf54: human with mouse loop (construct CC9) (human/mouse chimera) (UniProt Q9H7M9)
[3] = target: chimeric C10orf54: first half of IgV human and remainder (including loop) mouse (construct CC7) (human/mouse chimera)
[4] = target: T2, chimeric C10orf54: mouse IgV with human STALK (construct CC6) (human/mouse chimera)
T2 sequence: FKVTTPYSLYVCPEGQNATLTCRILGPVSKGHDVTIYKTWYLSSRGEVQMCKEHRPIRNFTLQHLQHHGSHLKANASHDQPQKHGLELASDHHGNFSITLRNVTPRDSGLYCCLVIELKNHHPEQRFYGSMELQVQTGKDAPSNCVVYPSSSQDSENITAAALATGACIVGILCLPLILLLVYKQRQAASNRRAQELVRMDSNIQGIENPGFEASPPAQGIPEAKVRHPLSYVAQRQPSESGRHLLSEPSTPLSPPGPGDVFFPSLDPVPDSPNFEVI

Measured: binding

B1: murine monoclonal antibody 5B (antibody, V domains shown)
VH: QVQLQQSGAELVRPGVSVKISCKGSGYTFTDYGMHWVKQSHAKSLEWIGIIDTYYGDATYNQKFKGKATMTVDKSSSTAYMELARLTSEDSAIYYCARRAGNAMDYWGQGTSVTVSS
VL: NIVMTQTPKFLLVSAGDRVTITCKASQSVSNDVAWYQQKPGQSPKLLIYYASNRYTGVPDRFTGSGYGTDFTFTISTVQAEDLAVYFCQQDYSSPRTFGGGTKLEIK
no binding: all assays above

B2: murine monoclonal antibody 46A (antibody, V domains shown)
VH: QVQLQQAGGELVRPGVSVKISCKGSGYTFTDYGMHWVKQSHAKSLEWIGIINTYYGDATYNQKFKGKATMTVDKSSSTAYMELARLTSEDSAIYYCARRAGTAMDYWGQGTSVTVSS
VL: SIVMTQTPKFLLVSAGDRVTITCKASQSVSNDVAWYQQKPGQSPKLLIYYASNRYTGVPDRFTGSGYGTDFTFTISTVQAEDLAVYFCQQDYGSPRTFGGGTKLEIK
no binding: [2] | [4]

B3: murine monoclonal antibody 51A (antibody, V domains shown)
VH: QVQLQQSGAELMKPGASVKISCKATGYTFSRYWIEWVKQRPGHGLEWIGEILPGSGSTNYNEKFKGKATFTADTSSNTAYMQLSSLTSEDSAVYYCASEEVYDGYPWFGYWGQGTLVTVSA
VL: QIVLSQSPAILSASPGEKVTMTCRASSSLSYMHWYQQRPGSSPKPWIYATSNLASGVPARFSGSGSGTSYSLTISRVEAEDAATYYCQQWSSNPYTFGGGTKLEIK
no binding: [1] | [3]

B4: murine monoclonal antibody 128A (antibody, V domains shown)
VH: QVQLQQSGAELVRPGVSVKISCKGSGYTFTDYGMHWVKQSHAKSLEWIGLIDTYYGDATYNHKFKGKATMTVDKSSRTAYMELARLTSEDSAIYYCARRAGNAMDYWGQGTSVTASS
VL: NIAMTQTPKFLLVSAGDRVTITCKASQSVSNDIAWYQQKPGQSPRLLIYYASNRYTGVPDRFTGSGYGTDFTFTISTVQAEDLAVYFCQQDYSSPRTFGGGTKLEIK
no binding: all assays above

B5: murine monoclonal antibody 146C (antibody, V domains shown)
VH: QVQLQQSGAELVRPGVSVKISCKGSGYTFTDYGMHWVKQSHAKSLEWIGLIDTYYGDATYNHKFKGKATMTVDKSSRTAYMELARLTSEDSAIYYCARRAGNAMDYWGQGTSVTASS
VL: NIAMTQTPKFLLVSAGDRVTITCKASQSVSNDIAWYQQKPGQSPRLLIYYASNRYTGVPDRFTGSGYGTDFTFTISTVQAEDLAVYFCQQDYSSPRTFGGGTKLEIK
no binding: all assays above

B6: murine monoclonal antibody 208A (antibody, V domains shown)
VH: QVQLQQSGAELVRPGVSVKISCKGSGYTFTDYGMHWVKQSHAKSLEWIGVIDTYYGDAGYNQKFKGKATMTVDKSSSTAYMELARLTSEDSAIYYCARRAGNAMDYWGQGTSVTVSS
VL: SIVMTQTPKFLLVSAGDRVTITCKASQSVSNDVAWYQQKPGQSPKLLIYYASNRYTGVPDRFTGSGYGTDFTFTISTVQAEDLAVYFCQQDYSSPRTFGGGTKLEIK
no binding: all assays above

B7: murine monoclonal antibody 26A (antibody, V domains shown)
VH: EVQLQQSGPELVKPGASMKISCKASGFSFTGYTMNWVKQSHVKNLEWIGLISPYNGGTSYNQKFKGKATLTVDKSSSTAYMELLSLTSEDSAVYYCARRAYGYAMDYWGQGTSVTVSS
VL: QIVLTQSPAIMSASPGEKVTMTCSASSSVSYMYWYQQKPGSSPRLLIYDTSNLASGVPLRFSGSGSGTSYSLTISRMEAEDAATYYCQQWSSYPFTFGSGTKLEIK
no binding: all assays above
